Values of other authors in patent US8835429B2, “Pyrimidine compounds, their use as mTOR kinase and Pl3 kinase inhibitors, and their syntheses” (Wyeth LLC, priority 2009, dated 2014).
For at least one compound, name, drawing or mass did not settle the structure.

Chains of the proteins cited; added tags and fusions are not shown. Lines headed by an entry give the natural chain unless they say otherwise; changes in a name come on top.
UniProt Q96Q15: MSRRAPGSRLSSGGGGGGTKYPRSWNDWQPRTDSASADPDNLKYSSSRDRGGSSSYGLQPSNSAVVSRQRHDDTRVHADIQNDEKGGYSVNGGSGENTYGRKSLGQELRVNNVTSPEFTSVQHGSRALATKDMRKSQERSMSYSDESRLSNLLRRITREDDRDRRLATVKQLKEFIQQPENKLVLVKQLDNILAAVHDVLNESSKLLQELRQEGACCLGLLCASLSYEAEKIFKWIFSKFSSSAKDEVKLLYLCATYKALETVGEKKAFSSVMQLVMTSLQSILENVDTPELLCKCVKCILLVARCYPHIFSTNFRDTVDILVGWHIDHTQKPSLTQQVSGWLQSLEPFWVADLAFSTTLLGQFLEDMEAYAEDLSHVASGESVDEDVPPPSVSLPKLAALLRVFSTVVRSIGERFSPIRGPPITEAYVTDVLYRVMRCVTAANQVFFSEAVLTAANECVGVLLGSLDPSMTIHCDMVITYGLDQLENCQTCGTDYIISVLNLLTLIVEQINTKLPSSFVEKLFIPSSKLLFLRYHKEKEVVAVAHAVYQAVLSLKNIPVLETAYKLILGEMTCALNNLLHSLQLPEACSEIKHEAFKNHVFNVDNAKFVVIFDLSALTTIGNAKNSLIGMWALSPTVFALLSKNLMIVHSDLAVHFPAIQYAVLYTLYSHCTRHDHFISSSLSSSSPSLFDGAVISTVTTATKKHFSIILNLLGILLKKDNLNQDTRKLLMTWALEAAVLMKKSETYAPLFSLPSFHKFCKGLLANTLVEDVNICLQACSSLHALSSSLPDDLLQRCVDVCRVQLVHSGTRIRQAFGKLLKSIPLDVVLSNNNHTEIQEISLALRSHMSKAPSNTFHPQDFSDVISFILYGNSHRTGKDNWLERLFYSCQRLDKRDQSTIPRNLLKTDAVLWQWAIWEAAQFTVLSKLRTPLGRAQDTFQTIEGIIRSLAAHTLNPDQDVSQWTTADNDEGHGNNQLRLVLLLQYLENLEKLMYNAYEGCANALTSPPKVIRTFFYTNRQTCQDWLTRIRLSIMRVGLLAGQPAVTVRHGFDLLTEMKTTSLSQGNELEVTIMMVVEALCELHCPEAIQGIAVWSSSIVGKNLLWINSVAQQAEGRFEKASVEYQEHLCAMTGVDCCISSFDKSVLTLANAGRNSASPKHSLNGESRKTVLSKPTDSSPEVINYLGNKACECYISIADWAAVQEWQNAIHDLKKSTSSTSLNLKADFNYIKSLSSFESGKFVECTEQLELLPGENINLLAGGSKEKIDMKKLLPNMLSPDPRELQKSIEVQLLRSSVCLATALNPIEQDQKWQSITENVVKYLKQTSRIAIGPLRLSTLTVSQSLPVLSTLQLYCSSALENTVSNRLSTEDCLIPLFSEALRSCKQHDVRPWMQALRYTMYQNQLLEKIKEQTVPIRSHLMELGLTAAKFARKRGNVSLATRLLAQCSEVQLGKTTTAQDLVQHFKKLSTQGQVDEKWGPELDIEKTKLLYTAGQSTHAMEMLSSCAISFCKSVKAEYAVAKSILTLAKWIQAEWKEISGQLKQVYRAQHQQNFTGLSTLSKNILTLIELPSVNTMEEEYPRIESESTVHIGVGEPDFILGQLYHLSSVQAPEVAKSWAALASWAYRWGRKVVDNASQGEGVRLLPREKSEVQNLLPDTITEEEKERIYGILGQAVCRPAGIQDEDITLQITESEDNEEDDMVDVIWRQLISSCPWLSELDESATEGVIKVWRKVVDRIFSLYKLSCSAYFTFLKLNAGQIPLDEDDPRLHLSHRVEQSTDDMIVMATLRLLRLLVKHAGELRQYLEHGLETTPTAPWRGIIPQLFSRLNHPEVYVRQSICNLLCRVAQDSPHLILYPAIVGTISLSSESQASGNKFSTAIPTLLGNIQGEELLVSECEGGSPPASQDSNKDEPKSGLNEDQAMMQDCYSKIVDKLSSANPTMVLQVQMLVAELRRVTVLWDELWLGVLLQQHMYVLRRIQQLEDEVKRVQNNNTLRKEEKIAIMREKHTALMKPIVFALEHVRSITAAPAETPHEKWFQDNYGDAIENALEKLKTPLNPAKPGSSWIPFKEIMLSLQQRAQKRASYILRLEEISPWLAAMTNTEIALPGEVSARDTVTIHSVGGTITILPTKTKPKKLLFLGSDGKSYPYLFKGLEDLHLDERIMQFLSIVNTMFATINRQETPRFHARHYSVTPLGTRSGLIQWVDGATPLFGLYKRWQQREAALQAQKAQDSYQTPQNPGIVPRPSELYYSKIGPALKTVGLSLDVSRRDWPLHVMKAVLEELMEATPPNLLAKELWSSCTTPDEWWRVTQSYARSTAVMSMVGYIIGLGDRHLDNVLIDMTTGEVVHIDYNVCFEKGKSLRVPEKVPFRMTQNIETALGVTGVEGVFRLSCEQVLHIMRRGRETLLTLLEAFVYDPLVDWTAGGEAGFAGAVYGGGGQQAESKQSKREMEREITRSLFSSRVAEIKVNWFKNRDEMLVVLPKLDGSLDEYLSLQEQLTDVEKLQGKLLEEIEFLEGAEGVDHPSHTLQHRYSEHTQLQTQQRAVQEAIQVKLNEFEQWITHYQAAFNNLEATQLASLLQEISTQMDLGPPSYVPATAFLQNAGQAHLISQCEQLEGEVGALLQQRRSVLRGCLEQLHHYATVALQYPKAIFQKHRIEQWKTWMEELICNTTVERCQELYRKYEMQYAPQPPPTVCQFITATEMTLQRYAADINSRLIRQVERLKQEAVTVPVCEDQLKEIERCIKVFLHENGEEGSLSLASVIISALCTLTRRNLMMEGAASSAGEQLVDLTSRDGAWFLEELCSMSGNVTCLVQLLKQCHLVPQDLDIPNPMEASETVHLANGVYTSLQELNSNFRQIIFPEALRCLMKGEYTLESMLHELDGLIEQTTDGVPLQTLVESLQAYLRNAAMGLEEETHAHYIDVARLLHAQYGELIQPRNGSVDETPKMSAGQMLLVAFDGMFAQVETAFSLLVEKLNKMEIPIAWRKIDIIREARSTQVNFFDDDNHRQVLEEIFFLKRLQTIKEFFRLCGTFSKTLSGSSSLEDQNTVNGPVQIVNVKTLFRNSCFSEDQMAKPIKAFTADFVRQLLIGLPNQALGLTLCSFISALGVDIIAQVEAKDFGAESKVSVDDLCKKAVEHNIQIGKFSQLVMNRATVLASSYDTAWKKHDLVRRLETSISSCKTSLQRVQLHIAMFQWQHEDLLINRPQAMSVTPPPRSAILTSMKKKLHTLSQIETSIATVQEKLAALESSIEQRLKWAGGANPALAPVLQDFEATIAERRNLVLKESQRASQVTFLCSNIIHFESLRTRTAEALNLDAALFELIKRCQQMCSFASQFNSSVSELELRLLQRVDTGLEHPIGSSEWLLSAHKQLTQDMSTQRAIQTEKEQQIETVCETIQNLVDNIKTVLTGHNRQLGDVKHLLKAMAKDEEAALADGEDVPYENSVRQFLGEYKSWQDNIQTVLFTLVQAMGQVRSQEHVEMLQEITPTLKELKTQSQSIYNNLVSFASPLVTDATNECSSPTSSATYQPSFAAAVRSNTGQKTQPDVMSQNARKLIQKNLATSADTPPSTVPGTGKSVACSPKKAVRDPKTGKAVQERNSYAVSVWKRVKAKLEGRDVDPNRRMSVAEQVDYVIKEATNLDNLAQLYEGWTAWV

Assays:
hSMG-1 = hSMG-1 (Homo sapiens, UniProt Q96Q15); settings: in the presence of purified recombinant FKBP12; cited from earlier work
[1] = test system: prostrate, breast, ovarian, lung, multiple myeloma, and brain cancers; settings: in vivo; cited from earlier work

Compound | inhibition of the kinase activity of hSMG-1 (hSMG-1) | activity in preclinical mouse cancer models [1]
CO[C@H]1C[C@@H]2CC[C@@H](C)[C@@](O)(O2)C(=O)C(=O)N2CCCC[C@H]2C(=O)O[C@H]([C@H](C)C[C@@H]2CC[C@@H](O)[C@H](OC)C2)CC(=O)[C@H](C)/C=C(\C)[C@@H](O)[C@@H](OC)C(=O)[C@H](C)C[C@H](C)/C=C/C=C/C=C/1C [Rapamycin] | does not inhibit | –
N=C(N)NCCC[C@H](NC(=O)CCC(=O)OC[N+]1(c2cc(=O)c3cccc(-c4ccccc4)c3o2)CCOCC1)C(=O)NCC(=O)N[C@@H](CC(=O)O)C(=O)N[C@@H](CO)C(=O)[O-] [SF-1126] | – | active
